Experimental data: PMC5571219
Results are given in words; binding and its absence hold for the method and conditions named. In cells and extracts the contact can be indirect. Binding calls can cover weak binding; strength is not graded here. Where a sequence is shown, tags or fusion partners need not be part of it.

The chains behind the UniProt entries cited, without tags or fusion partners. Where a name states a change or a piece, a line headed by the entry shows the natural chain unless it says otherwise.
UniProt P24814: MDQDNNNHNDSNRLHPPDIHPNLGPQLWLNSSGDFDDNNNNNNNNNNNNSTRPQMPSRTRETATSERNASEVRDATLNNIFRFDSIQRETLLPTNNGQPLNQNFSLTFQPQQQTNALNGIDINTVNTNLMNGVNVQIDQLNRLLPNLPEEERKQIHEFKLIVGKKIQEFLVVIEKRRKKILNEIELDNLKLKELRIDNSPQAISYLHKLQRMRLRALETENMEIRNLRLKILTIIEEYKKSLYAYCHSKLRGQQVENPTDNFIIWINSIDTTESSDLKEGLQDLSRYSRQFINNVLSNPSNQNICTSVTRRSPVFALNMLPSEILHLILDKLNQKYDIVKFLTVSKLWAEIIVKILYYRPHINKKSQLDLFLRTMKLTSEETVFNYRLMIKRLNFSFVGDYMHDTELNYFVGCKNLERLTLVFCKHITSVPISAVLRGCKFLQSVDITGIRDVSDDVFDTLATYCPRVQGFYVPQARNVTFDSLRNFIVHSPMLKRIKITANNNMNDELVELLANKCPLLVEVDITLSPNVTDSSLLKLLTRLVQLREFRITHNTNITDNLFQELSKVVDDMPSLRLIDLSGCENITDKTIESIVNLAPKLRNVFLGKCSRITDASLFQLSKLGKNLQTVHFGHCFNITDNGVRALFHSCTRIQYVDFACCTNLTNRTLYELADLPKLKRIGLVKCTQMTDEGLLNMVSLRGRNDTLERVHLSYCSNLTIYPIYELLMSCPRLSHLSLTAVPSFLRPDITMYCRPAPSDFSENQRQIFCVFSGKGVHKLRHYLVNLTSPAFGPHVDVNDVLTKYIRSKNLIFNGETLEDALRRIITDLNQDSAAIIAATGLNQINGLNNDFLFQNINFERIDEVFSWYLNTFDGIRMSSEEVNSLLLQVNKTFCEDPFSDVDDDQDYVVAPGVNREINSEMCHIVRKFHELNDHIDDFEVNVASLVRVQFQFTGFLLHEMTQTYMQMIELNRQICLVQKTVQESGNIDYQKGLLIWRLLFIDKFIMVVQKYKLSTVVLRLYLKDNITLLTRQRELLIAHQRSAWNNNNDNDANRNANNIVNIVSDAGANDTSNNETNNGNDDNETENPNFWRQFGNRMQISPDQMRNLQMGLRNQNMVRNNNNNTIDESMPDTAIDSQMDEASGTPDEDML

Target: T1, HA-tagged wild-type Whi7 (plasmid pWHI7) (S. cerevisiae) (UniProt P36167)
T1 sequence: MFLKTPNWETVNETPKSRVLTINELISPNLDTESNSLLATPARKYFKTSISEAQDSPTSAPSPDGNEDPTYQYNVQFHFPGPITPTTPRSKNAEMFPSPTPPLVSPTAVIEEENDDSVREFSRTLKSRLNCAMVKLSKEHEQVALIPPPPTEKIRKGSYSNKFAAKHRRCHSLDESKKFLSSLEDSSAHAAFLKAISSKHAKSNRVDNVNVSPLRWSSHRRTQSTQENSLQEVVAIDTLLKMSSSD
Test: co-IP; HA-tagged Whi7 or Whi5 immunoprecipitated from yeast crude extracts with HA-probe (F-7) antibody on Dynabeads Protein G, 20 min at room temperature; 50 mM Tris-HCl pH 8, 250 mM NaCl, 5 mM EDTA, 0.1% Triton X-100; western blot of input, unbound and immunoprecipitated fractions; for Grr1ΔF-flag cells were grown on raffinose and transferred to galactose for 4 h

binding: binds
Substance: flag-tagged Grr1 lacking its F-box (Grr1ΔF) (from UniProt P24814)
